At least one structure is not confirmed: it was looked up by name or label, or the drawing left a doubt.
Legend:
Type in all cases: biochemical
Gox1615 = molecular target: T1, Gox1615 (Gluconobacter oxydans, UniProt Q5FQJ0); assay: Enzyme activity assay (rate of NAD(P)H decrease at 340 nm), Gox1615; conditions: 10 mM substrate; for Specific Activity: Tab. 5, Gox1615, cofactor NADPH, pH 7.0, 30 °C
T1 sequence (Q5FQJ0 1-332): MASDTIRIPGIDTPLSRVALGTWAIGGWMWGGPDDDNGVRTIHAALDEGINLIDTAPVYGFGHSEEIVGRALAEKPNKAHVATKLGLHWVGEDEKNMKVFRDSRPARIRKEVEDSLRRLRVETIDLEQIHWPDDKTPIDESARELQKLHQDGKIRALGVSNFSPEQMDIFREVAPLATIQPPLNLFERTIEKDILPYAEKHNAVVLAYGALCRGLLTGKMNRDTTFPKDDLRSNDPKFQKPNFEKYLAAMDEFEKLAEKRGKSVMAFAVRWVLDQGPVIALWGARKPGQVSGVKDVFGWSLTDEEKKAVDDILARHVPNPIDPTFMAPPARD
Procedure: (§1) Measurment of enzyme activity: NADPH-dependent alpha-ketocarbonyl reductases were assayed by a routine method used for NAD(P)-linked enzymes by recording the rate of decrease of NADPH at 340 nm (ε = 6.22 mM^-1 x cm^-1)) with substrates at 30 °C. The reaction mixture (1 ml) for reduction of alpha-ketocarbonyl substrates contained 10 mM substrate, 40 mM potassium phosphate buffer pH 7.0, 0.025 mM NAD(P)H , and the enzyme. Reactions were induced by addition of enzyme or substrate. One unit of enzyme activity was defined as the amount of enzyme catalyzing the conversion of 1 µmol of pyridine nucleotide per min at 30 °C.
(§2) NADPH-dependent α-ketocarbonyl reductases were assayed by a routine method used for NAD(P)-linked enzymes by recording the rate of decrease of NADPH at 340 nm (ε = 6.22 mM^-1.cm^-1) with substrates at 30 °C. The reaction mixture (1 ml) for reduction of alpha-ketocarbonyl substrates contained 10 mM substrate, 40 mM potassium phosphate buffer pH 7.0, 0.025 mM NADPH , and the enzyme. Reactions were induced by addition of enzyme or substrate. One unit of enzyme activity was defined as the amount of enzyme catalyzing the conversion of 1 µmol of pyridine nucleotide per min at 30 °C.
(§3) For each enzyme (Gox0313, Gox0502, Gox0644, Gox0646, Gox1615, Gox2107, and Gox2684 respectively), fresh enzyme preparations were used to validate the substrate spectrum and the kinetic activity. […] Purified NAD(P)-dependent oxidoreductases were assayed at 30 °C by a routine method used for NAD(P)-linked enzymes by recording the rate of decrease of NAD(P)H at 340 nm (ε = […]) with substrates capable of reduction reactions. The standard reaction mixture (1 ml) for the reduction reactions of substrates contained 10 mM substrate, 40 mM potassium phosphate buffer (K-phosphate buffer) pH 7.0, 0.05 mM NAD(P)H, and the enzyme unless otherwise noted. Reactions were induced by addition of enzyme or substrate. One unit of enzyme activity was defined as the amount of enzyme catalyzing the conversion of 1 µmol of pyridine nucleotide per min at 30 °C. Measurement of the protein content was performed by the method of Bradford in Anal. Biochem. 72:248-254 (1976). Table 3: Summary of enzymatic activities with α-diketones, α-ketoaldehydes and /or α-ketoesters

Amino acid sequences for entries named in this document (tags omitted).
UniProt Q5FT75, entry or part of it: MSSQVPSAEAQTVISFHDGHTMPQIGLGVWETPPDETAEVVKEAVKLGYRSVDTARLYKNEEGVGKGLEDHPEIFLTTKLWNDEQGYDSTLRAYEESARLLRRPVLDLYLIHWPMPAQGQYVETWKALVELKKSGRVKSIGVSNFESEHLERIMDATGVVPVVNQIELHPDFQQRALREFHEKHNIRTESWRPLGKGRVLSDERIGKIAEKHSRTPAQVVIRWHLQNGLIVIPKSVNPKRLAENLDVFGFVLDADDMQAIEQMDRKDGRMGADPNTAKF

Gox0644 = Gox0644 (Gluconobacter oxydans, UniProt Q5FT75); assay: Enzyme activity assay (rate of NAD(P)H decrease at 340 nm), Gox0644; conditions: for Specific Activity: Tab. 4, Gox0644, cofactor NADPH, pH 7.0, 30 °C
Procedure: (§4) Reactions were induced by addition of enzyme or substrate. One unit of enzyme activity was defined as the amount of enzyme catalyzing the conversion of 1 µmol of pyridine nucleotide per min at 30 °C.
as §4
For each enzyme (Gox0313, Gox0502, Gox0644, Gox0646, Gox1615, Gox2107, and Gox2684 respectively), fresh enzyme preparations were used to validate the substrate spectrum and the kinetic activity. […] Reactions were induced by addition of enzyme or substrate. One unit of enzyme activity was defined as the amount of enzyme catalyzing the conversion of 1 µmol of pyridine nucleotide per min at 30 °C. […] Table 3: Summary of enzymatic activities with α-diketones, α-ketoaldehydes and /or α-ketoesters

Gox0313 = molecular target: T2, Gox0313 (Gluconobacter oxydans, UniProt Q5FU50); assay: Enzyme activity assay (rate of NAD(P)H decrease at 340 nm), Gox0313; conditions: 10 mM substrate; for Specific Activity: Tab. 6, Gox0313, substrate reduction, cofactor NADH, pH 7.0, 30 °C
T2 sequence (Q5FU50 1-343): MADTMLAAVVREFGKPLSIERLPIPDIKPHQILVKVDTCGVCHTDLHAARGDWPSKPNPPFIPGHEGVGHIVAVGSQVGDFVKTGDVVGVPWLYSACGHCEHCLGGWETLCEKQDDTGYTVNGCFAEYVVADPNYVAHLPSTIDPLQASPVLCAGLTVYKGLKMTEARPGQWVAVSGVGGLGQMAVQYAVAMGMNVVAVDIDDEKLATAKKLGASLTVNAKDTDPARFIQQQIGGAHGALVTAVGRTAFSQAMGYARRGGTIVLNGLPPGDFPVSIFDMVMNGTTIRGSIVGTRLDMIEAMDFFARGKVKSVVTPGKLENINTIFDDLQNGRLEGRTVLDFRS
Procedure: as §1, §2
as §3, with “Measurement of the protein content was performed by the method of Bradford in Anal. Biochem. 72:248-254 (1976). Table 3: Summary of enzymatic activities with α-diketones, α-ketoaldehydes and /or α-ketoesters” left out

Row | Structure (SMILES) | Specific Activity (Gox1615) | reduction by Gox0644 (result in words) (Gox0644; Gox0644, NADPH) | Activity (Gox1615; Table 3, Gox1615, K-phosphate buffer pH 7.0, 0.05 mM NAD(P)H, 30 °C) | Specific Activity (Gox0313) | Activity (Gox0313; Table 3, Gox0313, K-phosphate buffer pH 7.0, 0.05 mM NAD(P)H, 30 °C) | Specific Activity (Gox0644; 10 mM substrate) | Activity (Gox0644; Table 3, Gox0644, 10 mM substrate, K-phosphate buffer pH 7.0, 0.05 mM NAD(P)H, 30 °C)
1 | CCC(=O)C(=O)O [2-oxobutyrate] | 6.5 U/mg | not reduced |  |  |  |  | 
2 | CCOC(=O)C(C)=O [ethylpyruvate] | 1.2 U/mg |  | 1.2 U/mg | 0.1 U/mg | 0.2 U/mg | 92.8 U/mg | 92.8 U/mg
3 | CC(=O)C(=O)O [Pyruvate] |  |  |  |  |  | 1.63 U/mg | 
4 | CC(=O)C(=O)OCCC(C)C [isoamylpyruvate] | 4.7 U/mg |  |  | 0.1 U/mg |  |  | 
